Measured values as given in PubChem BioAssay AID248 (DTP/NCI, 2004).
The list does not hold the whole screen: it gathers tests that were run many times, whatever their T/C, doses with no T/C, and many T/C values between a quarter and a half above the control. Other doses and runs of a compound stand elsewhere. T/C gives the treated animals as a percentage of the vehicle group. Some doses have a count of surviving animals in place of a T/C: the source files T/C as zero there, which appears to mark a toxic dose or a test without result, not a measured value. Some doses without a T/C left all or most animals alive at the check, yet need not have been tolerated: the source hardly ever lists a survival T/C far under the control, and the zero likely stands for such cases as well. Counts of survivors are from the toxicity check (mostly the fifth day) where no day follows; animals may have died later. Schedule codes are those of the source, taken here to give the interval after Q, in days (D) or hours (H), and the number of doses after X. Where survival is the endpoint, the PubChem record calls one and a half times the control and up active, and a quarter to a half above the control has no call in these data; cut-offs in other NCI protocols can differ.

System: L1210 leukemia ip in BDF1 mice, survival T/C
Assay: NCI In Vivo Anticancer Drug Screen. Data for tumor model L1210 Leukemia (intraperitoneal) in B6D2F1 (BDF1) mice
Conditions: T/C endpoint: mean survival time, higher T/C = longer survival
[1] = dose: 100.0 mg/kg/injection, schedule: Q04DX003 (ip), vehicle: Klucel (hydroxypropylcellulose) (HPC)
[2] = dose: 200.0 mg/kg/injection, schedule: Q04DX003 (ip), vehicle: Klucel (hydroxypropylcellulose) (HPC)
[3] = dose: 400.0 mg/kg/injection, schedule: Q04DX003 (ip), vehicle: Klucel (hydroxypropylcellulose) (HPC)
[4] = dose: 400.0 mg/kg/injection, schedule: Q01DX001 (ip), vehicle: Klucel (hydroxypropylcellulose) (HPC)
[5] = dose: 400.0 mg/kg/injection, schedule: Q01DX009 (ip), vehicle: Klucel (hydroxypropylcellulose) (HPC)

C/C(=N/N(C)C)c1ccc([N+](=O)[O-])cc1
survivor count (dose: 400.0 mg/kg/injection, schedule: Q01DX009 (ip), vehicle: saline): 3 of 6

CCNC(C)(C)C(SS)c1ccc(Br)cc1 (stereo unspecified)
survivor count (dose: 25.0 mg/kg/injection, schedule: Q01DX009 (ip), vehicle: water): 2 of 6
survivor count (dose: 100.0 mg/kg/injection, schedule: Q01DX009 (ip), vehicle: water): 3 of 6

O=C(Nc1ccc(C2=NCCN2)cc1)c1c(F)c(F)c(C(=O)Nc2ccc(C3=NCCN3)cc2)c(F)c1F
T/C (dose: 15.0 mg/kg/injection, schedule: Q01DX015 (ip), vehicle: methylcellulose (MC)): 143 % of control
survivor count (dose: 75.0 mg/kg/injection, schedule: Q01DX015 (ip), vehicle: methylcellulose (MC)): 0 of 6
survivor count (dose: 150.0 mg/kg/injection, schedule: Q01DX015 (ip), vehicle: methylcellulose (MC)): 0 of 6
survivor count (dose: 300.0 mg/kg/injection, schedule: Q01DX015 (ip), vehicle: methylcellulose (MC)): 0 of 6

O=[N+]([O-])c1ccc(N=C=S)cc1
survivor count [1]: 1 of 3
survivor count [2]: 0 of 3
survivor count [3]: 0 of 3

NC1C(=O)NC(=O)NC1=O
survivor count (dose: 400.0 mg/kg/injection, schedule: Q04DX002 (ip), vehicle: Klucel (hydroxypropylcellulose) (HPC)): 0 of 3

Oc1c(I)cc(I)c2cccnc12
survivor count [4]: 0 of 6

Cc1cccnc1NC(=S)Nc1ccccc1Cl
survivor count (dose: 400.0 mg/kg/injection, schedule: Q04DX002 (ip), vehicle: gum acacia): 3 of 3

CCN(CC)C1=C(Cl)C(=O)C(N(CC)CC)=C(Cl)C1=O
survivor count (dose: 100.0 mg/kg/injection, schedule: Q04DX002 (ip), vehicle: gum acacia): 3 of 3

CCCCc1c(N)nc(N)nc1N
survivor count (dose: 150.0 mg/kg/injection, schedule: Q01DX001 (ip), vehicle: saline with Tween-80): 0 of 6
survivor count (dose: 300.0 mg/kg/injection, schedule: Q01DX001 (ip), vehicle: saline with Tween-80): 0 of 6

CNC(=O)C(=O)NCCCN1CC1
survivor count (dose: 50.0 mg/kg/injection, schedule: Q04DX003 (ip), vehicle: Klucel (hydroxypropylcellulose) (HPC)): 4 of 6
survivor count [1]: 3 of 6
survivor count [2]: 0 of 6
survivor count [3]: 0 of 6

NS(=O)(=O)c1ccc(S(=O)(=O)NC2CCCCC2)cc1
survivor count [5]: 6 of 6

ClC1=C(Cl)C2(Cl)CC1(Cl)C1OC12 (stereo unspecified)
survivor count (dose: 100.0 mg/kg/injection, schedule: Q01DX009 (ip), vehicle: other): 0 of 6
survivor count (dose: 200.0 mg/kg/injection, schedule: Q01DX009 (ip), vehicle: other): 0 of 6
survivor count (dose: 400.0 mg/kg/injection, schedule: Q01DX009 (ip), vehicle: other): 0 of 6

Cc1ccc(S(=O)(=O)/C=C(/I)C#N)cc1
survivor count (dose: 100.0 mg/kg/injection, schedule: Q01DX001 (ip), vehicle: saline): 0 of 6
survivor count (dose: 200.0 mg/kg/injection, schedule: Q01DX001 (ip), vehicle: saline): 0 of 6
survivor count (dose: 400.0 mg/kg/injection, schedule: Q01DX001 (ip), vehicle: saline): 0 of 6

Cc1ccc(NC(=O)c2c(Cl)c(Cl)c(Cl)c(Cl)c2C(=O)O)cc1Cl
survivor count [5]: 4 of 6

CC1=CCS(=O)(=O)C1
survivor count (dose: 400.0 mg/kg/injection, schedule: Q04DX003 (ip), vehicle: saline): 0 of 6

CCCCNC(=O)C1CC2c3c(Br)ccc4c3C(CC2N(C)C1)CN4C(C)=O (stereo unspecified)
survivor count (dose: 40.0 mg/kg/injection, schedule: Q01DX001 (ip), vehicle: Klucel (hydroxypropylcellulose) (HPC)): 0 of 6
survivor count (dose: 80.0 mg/kg/injection, schedule: Q01DX001 (ip), vehicle: Klucel (hydroxypropylcellulose) (HPC)): 1 of 6
survivor count (dose: 100.0 mg/kg/injection, schedule: Q01DX001 (ip), vehicle: Klucel (hydroxypropylcellulose) (HPC)): 0 of 6
survivor count (dose: 200.0 mg/kg/injection, schedule: Q01DX001 (ip), vehicle: Klucel (hydroxypropylcellulose) (HPC)): 0 of 6
survivor count [4]: 0 of 6

CN(C)CCC(=O)c1cccc([N+](=O)[O-])c1
survivor count (dose: 150.0 mg/kg/injection, schedule: Q01DX001 (ip), vehicle: other): 0 of 7
survivor count (dose: 300.0 mg/kg/injection, schedule: Q01DX001 (ip), vehicle: other): 0 of 7
